Assay results from doi:10.1101/2020.12.15.422806.

Chains of the proteins cited; added tags and fusions are not shown.
UniProt Q8CJG0: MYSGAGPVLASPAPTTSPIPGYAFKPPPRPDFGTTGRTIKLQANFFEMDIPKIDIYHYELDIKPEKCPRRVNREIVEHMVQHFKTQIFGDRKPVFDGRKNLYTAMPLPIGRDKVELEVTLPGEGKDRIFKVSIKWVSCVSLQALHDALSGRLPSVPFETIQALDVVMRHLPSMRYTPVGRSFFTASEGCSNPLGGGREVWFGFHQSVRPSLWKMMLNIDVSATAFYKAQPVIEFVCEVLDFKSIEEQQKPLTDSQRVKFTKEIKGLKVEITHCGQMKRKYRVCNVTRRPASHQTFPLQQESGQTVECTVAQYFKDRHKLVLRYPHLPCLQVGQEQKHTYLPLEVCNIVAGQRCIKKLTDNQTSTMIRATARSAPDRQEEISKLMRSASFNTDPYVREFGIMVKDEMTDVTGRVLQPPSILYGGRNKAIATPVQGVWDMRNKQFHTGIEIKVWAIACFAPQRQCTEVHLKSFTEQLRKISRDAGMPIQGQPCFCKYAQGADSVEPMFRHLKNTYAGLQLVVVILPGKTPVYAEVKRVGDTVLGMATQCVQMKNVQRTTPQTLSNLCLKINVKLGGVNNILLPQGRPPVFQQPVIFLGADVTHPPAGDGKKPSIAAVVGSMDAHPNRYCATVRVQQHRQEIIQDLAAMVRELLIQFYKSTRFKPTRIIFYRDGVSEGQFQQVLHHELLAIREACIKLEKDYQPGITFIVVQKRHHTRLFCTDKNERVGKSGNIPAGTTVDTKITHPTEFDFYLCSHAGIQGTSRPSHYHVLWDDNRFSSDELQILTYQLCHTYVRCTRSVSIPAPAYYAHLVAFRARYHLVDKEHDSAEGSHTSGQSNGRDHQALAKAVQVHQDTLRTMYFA
UniProt Q60899: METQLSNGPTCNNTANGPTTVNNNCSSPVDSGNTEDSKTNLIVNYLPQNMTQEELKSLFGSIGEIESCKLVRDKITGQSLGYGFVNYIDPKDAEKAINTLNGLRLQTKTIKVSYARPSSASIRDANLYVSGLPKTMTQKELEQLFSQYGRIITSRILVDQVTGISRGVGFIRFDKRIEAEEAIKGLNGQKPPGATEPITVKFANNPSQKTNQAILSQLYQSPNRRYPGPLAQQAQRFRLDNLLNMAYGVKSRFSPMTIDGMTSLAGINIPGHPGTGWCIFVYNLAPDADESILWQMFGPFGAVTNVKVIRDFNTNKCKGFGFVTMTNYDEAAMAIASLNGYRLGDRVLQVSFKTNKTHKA
UniProt Q61701: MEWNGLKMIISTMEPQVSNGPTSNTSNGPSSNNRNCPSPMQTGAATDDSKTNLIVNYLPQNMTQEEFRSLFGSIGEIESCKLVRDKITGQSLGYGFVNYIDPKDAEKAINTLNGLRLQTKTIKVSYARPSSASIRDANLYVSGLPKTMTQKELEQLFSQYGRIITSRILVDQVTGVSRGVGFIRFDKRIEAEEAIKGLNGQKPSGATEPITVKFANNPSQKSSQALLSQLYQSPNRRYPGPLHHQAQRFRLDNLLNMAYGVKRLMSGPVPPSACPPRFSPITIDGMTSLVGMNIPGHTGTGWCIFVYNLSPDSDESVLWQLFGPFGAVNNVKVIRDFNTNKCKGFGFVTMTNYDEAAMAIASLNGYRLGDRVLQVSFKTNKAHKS
UniProt O88569: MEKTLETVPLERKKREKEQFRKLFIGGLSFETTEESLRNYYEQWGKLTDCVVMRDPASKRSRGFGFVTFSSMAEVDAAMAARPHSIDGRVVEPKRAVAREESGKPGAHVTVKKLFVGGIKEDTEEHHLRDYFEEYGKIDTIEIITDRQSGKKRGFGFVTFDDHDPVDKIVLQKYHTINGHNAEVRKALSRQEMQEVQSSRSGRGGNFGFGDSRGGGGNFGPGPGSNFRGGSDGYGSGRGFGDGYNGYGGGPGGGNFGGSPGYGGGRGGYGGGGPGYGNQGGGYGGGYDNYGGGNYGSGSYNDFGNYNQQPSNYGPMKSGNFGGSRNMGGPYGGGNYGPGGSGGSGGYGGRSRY
UniProt Q91Z31: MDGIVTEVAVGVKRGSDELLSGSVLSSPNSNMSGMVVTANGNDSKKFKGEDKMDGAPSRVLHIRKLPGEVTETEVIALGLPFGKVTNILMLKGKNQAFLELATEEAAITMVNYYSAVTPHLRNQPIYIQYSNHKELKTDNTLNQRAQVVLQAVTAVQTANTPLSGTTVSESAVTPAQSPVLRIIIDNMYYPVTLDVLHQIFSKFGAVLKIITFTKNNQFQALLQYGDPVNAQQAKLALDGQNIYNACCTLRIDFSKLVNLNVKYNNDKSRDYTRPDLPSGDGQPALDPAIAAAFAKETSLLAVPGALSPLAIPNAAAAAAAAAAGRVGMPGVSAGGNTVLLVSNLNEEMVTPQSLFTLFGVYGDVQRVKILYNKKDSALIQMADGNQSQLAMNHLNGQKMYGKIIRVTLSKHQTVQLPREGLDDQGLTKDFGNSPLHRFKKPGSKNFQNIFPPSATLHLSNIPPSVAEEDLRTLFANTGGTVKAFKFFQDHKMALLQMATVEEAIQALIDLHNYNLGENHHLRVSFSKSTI
UniProt Q921F2: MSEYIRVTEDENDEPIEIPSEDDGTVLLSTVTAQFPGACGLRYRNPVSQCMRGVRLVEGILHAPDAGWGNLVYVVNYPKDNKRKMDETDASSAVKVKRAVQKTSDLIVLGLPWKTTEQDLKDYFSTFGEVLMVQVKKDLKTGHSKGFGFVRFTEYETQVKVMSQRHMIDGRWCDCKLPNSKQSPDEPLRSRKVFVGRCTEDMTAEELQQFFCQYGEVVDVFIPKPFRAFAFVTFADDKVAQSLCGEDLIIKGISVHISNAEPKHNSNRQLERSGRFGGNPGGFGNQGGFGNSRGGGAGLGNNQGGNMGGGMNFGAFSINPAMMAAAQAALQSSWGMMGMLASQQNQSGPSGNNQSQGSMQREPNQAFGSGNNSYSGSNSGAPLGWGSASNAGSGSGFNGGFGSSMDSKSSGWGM
UniProt Q8BKI2: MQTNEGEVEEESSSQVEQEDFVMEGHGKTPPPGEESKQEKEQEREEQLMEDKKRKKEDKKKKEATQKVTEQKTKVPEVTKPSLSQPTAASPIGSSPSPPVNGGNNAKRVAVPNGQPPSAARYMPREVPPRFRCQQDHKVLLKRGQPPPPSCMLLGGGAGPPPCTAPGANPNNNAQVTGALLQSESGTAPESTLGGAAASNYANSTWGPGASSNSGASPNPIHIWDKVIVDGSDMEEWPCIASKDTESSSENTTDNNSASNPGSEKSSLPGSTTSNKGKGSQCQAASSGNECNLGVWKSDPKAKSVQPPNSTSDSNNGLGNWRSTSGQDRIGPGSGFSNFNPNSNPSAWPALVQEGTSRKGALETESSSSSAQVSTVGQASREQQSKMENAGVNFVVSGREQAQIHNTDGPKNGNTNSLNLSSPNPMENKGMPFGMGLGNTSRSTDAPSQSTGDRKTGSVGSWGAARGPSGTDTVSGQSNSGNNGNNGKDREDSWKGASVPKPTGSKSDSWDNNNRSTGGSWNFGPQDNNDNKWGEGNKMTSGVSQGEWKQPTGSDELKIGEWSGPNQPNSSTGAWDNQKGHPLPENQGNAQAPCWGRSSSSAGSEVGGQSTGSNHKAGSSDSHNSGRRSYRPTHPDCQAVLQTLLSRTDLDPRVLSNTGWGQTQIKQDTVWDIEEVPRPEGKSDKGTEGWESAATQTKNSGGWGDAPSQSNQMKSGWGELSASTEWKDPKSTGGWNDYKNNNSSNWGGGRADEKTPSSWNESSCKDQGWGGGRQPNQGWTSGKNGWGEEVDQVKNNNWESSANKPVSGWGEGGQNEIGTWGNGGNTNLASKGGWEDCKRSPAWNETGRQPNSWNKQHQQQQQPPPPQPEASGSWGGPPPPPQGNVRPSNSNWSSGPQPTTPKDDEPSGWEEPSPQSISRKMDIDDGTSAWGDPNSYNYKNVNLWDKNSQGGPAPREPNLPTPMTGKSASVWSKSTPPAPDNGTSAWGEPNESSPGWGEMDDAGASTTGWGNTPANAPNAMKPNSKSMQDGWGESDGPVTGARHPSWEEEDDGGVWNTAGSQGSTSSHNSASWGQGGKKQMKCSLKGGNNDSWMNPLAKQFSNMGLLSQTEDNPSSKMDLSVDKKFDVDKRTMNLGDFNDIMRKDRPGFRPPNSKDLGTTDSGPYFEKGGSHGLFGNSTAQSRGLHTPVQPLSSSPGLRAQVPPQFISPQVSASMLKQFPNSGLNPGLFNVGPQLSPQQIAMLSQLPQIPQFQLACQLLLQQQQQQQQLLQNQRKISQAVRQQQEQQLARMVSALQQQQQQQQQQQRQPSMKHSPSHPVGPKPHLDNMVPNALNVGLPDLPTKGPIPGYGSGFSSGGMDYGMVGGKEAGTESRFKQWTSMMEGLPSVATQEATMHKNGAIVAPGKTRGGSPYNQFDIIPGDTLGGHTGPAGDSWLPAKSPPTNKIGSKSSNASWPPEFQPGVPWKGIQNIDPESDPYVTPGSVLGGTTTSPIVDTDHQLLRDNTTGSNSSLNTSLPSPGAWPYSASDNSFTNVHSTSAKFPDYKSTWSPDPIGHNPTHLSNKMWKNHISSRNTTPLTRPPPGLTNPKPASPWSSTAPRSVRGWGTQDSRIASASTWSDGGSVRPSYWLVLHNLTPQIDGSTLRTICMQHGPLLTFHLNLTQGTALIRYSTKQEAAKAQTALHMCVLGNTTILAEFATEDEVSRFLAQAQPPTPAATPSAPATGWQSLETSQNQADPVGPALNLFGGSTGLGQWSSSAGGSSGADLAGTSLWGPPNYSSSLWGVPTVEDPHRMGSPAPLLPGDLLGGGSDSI
UniProt Q3UHC0: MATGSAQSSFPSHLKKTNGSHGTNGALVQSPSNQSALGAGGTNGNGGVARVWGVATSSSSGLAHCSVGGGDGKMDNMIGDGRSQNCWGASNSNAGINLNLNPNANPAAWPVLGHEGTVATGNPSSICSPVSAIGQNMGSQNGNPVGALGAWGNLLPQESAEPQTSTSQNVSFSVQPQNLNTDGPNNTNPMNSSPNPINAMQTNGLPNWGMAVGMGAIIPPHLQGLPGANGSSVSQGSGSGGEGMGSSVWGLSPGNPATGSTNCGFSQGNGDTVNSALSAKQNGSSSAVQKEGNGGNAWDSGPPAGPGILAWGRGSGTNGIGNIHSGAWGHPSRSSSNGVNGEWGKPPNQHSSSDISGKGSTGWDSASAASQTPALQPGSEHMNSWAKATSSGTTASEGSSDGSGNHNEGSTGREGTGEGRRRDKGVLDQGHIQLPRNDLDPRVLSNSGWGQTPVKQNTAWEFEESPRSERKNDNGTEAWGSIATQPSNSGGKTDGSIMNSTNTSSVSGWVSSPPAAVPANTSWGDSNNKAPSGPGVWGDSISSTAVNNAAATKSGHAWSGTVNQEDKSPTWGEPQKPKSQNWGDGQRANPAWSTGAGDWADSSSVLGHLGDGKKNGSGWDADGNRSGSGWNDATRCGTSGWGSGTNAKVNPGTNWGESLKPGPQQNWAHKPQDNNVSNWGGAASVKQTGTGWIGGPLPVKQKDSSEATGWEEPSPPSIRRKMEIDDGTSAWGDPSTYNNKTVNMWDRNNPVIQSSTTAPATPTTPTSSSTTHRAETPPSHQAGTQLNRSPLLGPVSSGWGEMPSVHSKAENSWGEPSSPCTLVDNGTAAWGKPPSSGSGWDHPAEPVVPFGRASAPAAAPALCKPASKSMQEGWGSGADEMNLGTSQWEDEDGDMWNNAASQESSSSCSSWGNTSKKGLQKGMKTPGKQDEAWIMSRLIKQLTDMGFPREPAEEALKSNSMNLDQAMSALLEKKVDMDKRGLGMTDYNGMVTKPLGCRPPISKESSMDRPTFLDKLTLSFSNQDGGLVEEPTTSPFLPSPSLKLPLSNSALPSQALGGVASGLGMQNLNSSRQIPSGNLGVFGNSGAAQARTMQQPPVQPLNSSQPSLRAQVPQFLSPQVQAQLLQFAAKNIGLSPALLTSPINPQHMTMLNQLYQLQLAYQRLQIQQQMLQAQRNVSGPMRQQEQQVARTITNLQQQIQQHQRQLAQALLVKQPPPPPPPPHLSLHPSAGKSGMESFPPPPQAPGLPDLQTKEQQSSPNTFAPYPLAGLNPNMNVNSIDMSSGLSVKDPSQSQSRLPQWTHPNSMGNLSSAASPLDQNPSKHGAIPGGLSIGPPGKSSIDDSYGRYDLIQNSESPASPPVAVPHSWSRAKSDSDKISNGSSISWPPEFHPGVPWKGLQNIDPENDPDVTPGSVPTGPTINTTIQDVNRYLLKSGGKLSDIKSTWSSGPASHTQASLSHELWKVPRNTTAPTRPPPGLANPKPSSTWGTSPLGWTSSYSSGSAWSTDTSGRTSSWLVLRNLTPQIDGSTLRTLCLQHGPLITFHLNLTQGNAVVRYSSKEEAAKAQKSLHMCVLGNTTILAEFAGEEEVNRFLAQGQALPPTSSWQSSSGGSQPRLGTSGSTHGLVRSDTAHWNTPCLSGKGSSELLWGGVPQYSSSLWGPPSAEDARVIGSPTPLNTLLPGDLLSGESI

biological target: Argonaute 2 (mouse (endogenous in NSC-34)) (UniProt Q8CJG0); experiment: affinity purification with mass spectrometry

binding, binds:
ELAVL2 (from UniProt Q60899 1-360)
ELAVL4 (from UniProt Q61701 1-385)
HNRNPA2B1 (from UniProt O88569 1-353)
NUDT21 (from UniProt Q9CQF3 1-227)
PTBP2 (from UniProt Q91Z31 1-531)
PTBP3 (from UniProt Q8BHD7 1-523)
RBBP6 (from UniProt P97868 1-1790)
TDP-43 (from UniProt Q921F2 1-414)
TNRC6A (from UniProt Q3UHK8 1-1896)
TNRC6B (from UniProt Q8BKI2 1-1810)
TNRC6C (from UniProt Q3UHC0 1-1690)

No constants are given. Whether binding was seen depends on the method and setting. Binding seen in cells or lysates may run through a third protein. These calls come from enrichment with a bait or labelling near it, and not all partners need be listed.
